From ChEMBL document CHEMBL3988442, “University of Dundee, Small-Polar-MMV Screening Library” (2021).

Toxoplasma: 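Assay of Toxoplasma gondii numbers, read through their beta-galactosidase reporter with a colour substrate. Concentration: 10 µM. Higher reads as fewer parasites (inferred from which compounds were picked for retests). Size under these conditions: about 67,000 compounds, about 260 of them at 50% or above in at least one test.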
Leishmania in macrophages: 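Cell assay of Leishmania donovani living inside macrophages; the read-out is not stated. Concentration: 30 µM. Higher reads as stronger inhibition (inferred: compounds with an IC50 in retests scored well above the rest). About 69,000 compounds were tested under these conditions; 1.5% (about 1,000) showed 50% or more at least once.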

Results are given as percent effect.
The record does not define 0% and 100%; most values in the screen are far below 50% and negative numbers occur (in some assays of this library far below -100).
Compounds were drawn at random from those tested, without regard to their results.
Two or more numbers in one place are separate tests of the same structure; such repeats can differ widely.
A dash means the value is not listed here; it may have been measured.

| compound | Toxoplasma | Leishmania in macrophages |
|---|---|---|
| `O=C(O)C(F)(F)F.O=C(O)C(F)(F)F.[H][C@]12C[C@@H](CN(C)C)N(C(C)=O)[C@@]1([H])CCN(C(=O)c1cncc(C)c1)C2` | -4.327% | 13% |
| `N#Cc1ccc(NCCC2CCN(CC(F)(F)F)CC2)nc1` | 0.6944% | -9.601% |
| `CC(=O)NC(C)C(=O)NCc1ccc(N2CCNC(=O)C2)cc1` (stereo not given) | 0.3193% | -1.729% |
| `COc1ccccc1OCCNCCn1cccn1` | -27.71% | 30.77% |
| `CCc1noc(C)c1C(=O)NCC(c1ccc(C)cc1)N(C)C` (stereo not given) | 23.98% | 20.27% |
| `Cc1cc(C)nc(NCCC(=O)NCCn2ccc3ccccc32)n1` | 4.153% | -9.405% |
| `CCc1nc(CN2CCCN(C(=O)C(C)COC)CC2)cs1` (stereo not given) | 0.847% | 4.793% |
| `CC(=O)c1cc(C(=O)N2Cc3ccccc3OC3(CCOCC3)C2)cs1` | 9.19% | 13.87% & -5.723% |
| `COc1ccc(CC(=O)N2CC(=O)NCC(C)(C)C2)cc1` | -7.511% | 17.48% |
| `O=C(c1ccnnc1)N1CCC2(CCN(c3ccsc3)C2=O)C1` (stereo not given) | -4.732% | 11.13% |
| `NC(=O)C1CCCN(C(=O)c2cccc(OCc3cscn3)c2)C1` (stereo not given) | 4.382% | 19.93% |
| `Cc1nn(C)c2c(NCc3ccccn3)ncnc12` | 5.085% | 50.68% |
| `O=C(O)C(F)(F)F.[H][C@@]12CCN(CC3CC3)[C@@]1([H])CCN2S(=O)(=O)c1cccs1` | -6.111% | 2.685% |
| `CS(=O)(=O)N1CCC2(CC1)CC(CC(=O)NCC1CC1)c1ccccc12` (stereo not given) | 0.9776% | 26.53% |
| `CCCC(O)CN1CCC(=O)N(CCOC)Cc2cc3c(cc21)OCO3` (stereo not given) | 4.198% | -10.41% |
| `COCCO[C@H]1CCN(C(=O)C2CCOCC2)[C@H]1Cc1ccncc1` | 0.6101% | -5.054% |
| `CC(Cn1cccn1)NC(=O)CCc1nc(C(C)(C)C)no1` (stereo not given) | 11.69% | 7.069% |
| `COc1ccc(C2CCCN2C(=O)NCCCn2ccnc2)cc1` (stereo not given) | -34.59% | -11.67% |
| `COc1ccc(CN2CCCCCC2c2cccs2)c(OC)c1` (stereo not given) | -11.04% | 16.39% |
| `Cc1cc(Cn2cc(C(C)Cc3ccc4c(c3)OCO4)nn2)n[nH]1` (stereo not given) | -7.877% | 2.053% |
| `CCN1CCC(NC(=O)CN2CC(n3nc(C)cc3C)C2)CC1` | -3.087% | -3.811% |
| `CCS(=O)(=O)N1Cc2nccn2CC(Cn2nc(C)nc2C)C1` (stereo not given) | 3.562% | 19.28% |
| `CCc1nc(C2CCCN(C(=O)c3c[nH]c(C(C)C)n3)C2)no1` (stereo not given) | 3.463% | 18.54% |
| `CC(C)(C)c1ccn(C2(C(=O)O)CCN(c3ncccc3C#N)CC2)n1` | 19.77% | 7.653% |
| `O=C(NCC1CC(=O)N(CCc2ccccc2)C1)c1ccc[nH]1` (stereo not given) | 0.8246% | 9.898% |
| `Cc1cccc(COC2COC3(CCN(S(C)(=O)=O)CC3)C2)n1.O=C(O)C(F)(F)F` (stereo not given) | 3.407% | 48.22% |
| `COc1cccc(OC)c1-c1ccnc2cc(CC(=O)NC3CC3)nn12` | -13% | 3.995% & 13.6% |
| `COc1ccccc1CC(=O)N(C)Cc1cc(C)on1` | 3.557% | -2.027% |
| `CCCc1cncnc1N1CCC(NCc2cc3ccccc3[nH]2)CC1` | 13.44% | 84.37% |
| `c1c[nH]c2nc(C3CCNCC3)nc-2c1` | 2.047% | 18.91% |
| `CC(=O)c1ccc(C(=O)NCC2Cc3ccccc3O2)s1` (stereo not given) | 13.57% | -141.4% |
| `Cc1ccc(C(=O)N2CCSCC2)cc1N1CCNC1=O` | 6.343% | 7.262% |
| `CNC(=O)CN(C)C(=O)c1cc2ccccc2cc1OC` | 18.23% | 5.529% & 6.035% |
| `CC(C)c1nnc2n1CCN(Cc1csc(CC(=O)N(C)C)n1)C2` | 16.09% | -37.55% |
| `Cn1cc(CN2CCC3(CC2)CCN(Cc2ccccn2)CC3)cn1` | 2.737% | -5.313% |
| `Fc1cc(CN2CCOC3(CCOCC3)C2)ccc1OC(F)F` | 12.7% | 22.97% |
| `Cc1cccc(Cn2nc(C3CCNCC3)n(-c3ccccc3)c2=O)c1` | 5.081% | 25.38% |
| `CCN(CC(C)C#N)C(=O)CSc1ccc(C(F)(F)F)cn1` (stereo not given) | -4.046% | -59.21% |
| `O=C(CC1CCCO1)N1CCCN(c2cccnn2)CC1` (stereo not given) | -3.464% | 10.61% |
| `O=C(CC1CC1)N1CCC2(COCc3cnc(N4CCOCC4)nc32)C1` (stereo not given) | -18.63% | 20.05% |
| `CC(C)NC1CC2(CCNCC2)c2cc(F)ccc21.Cl.Cl` (stereo not given) | 19.15% | 28.84% & 29.13% |
| `CC(=O)N1CC2(CCCCN2Cc2ccc(Cl)cc2)Cc2ccccc21` (stereo not given) | 17.31% | 7.608% |
| `Cc1nc(C)c(C(=O)NCCNc2cc(N3CCCC3)ncn2)s1` | -3.279% | 0.1195% |
| `Cc1ccc(S(=O)(=O)N(C)Cc2nccs2)cc1N(C)C` | -1.447% | 4.935% |
| `O=C(O)C(F)(F)F.O=C(c1ccc[nH]1)N1CC[C@@H](OCC2CC2)[C@@H]1Cc1cccnc1` | -0.3695% | 18.26% |
| `O=C(O)C(F)(F)F.c1ccc(CN2CCc3ncnc(C4CC4)c3CC2)cc1` | 14.27% | -26.61% |
| `CC(C)C(C(=O)N1CCC(N(C)c2cccnn2)CC1)n1cncn1` (stereo not given) | -1.206% | 7.838% |
| `CCCn1nc(C)c(C(=O)N[C@@H]2CC[C@@H](N3CCCC3)[C@@H]2O)c1C` | -16.27% | 29.82% |
| `O=C(O)[C@@H]1CN(C(=O)CN2Cc3ccccc3C2)C[C@H]1c1ccncc1` | 3.968% | 42.66% |
| `CSCC(=O)N1CCCN(c2ccccc2C)CC1` | 0.1595% | 12.81% |
| `Cc1ccc(-c2nc(C(=O)N(C)CC(=O)N(C)C)cs2)c(C)c1` | -5.732% | -31.91% |
| `O=C1CCc2cc(-c3csc(CCN4CCOC4=O)n3)ccc2N1` | -1.468% | 13.76% |
| `CN1CCOC(c2cncc(CCC(=O)N(C)C)n2)C1` (stereo not given) | - | 24.04% |
| `CCCn1cc(NC(=O)c2cccc3cccnc23)ccc1=O` | -10.37% | 32.36% |
| `CCc1nc(-c2ccc(NC(=O)N3CCCC3)cc2)no1` | -0.4174% | 8.436% |
| `COCC(=O)N(Cc1ccc2cc[nH]c2c1)C1CC1` | -9.94% | -28.21% |
| `O=C(c1csc(-c2ccco2)n1)N1CCN2CCCCC2C1` (stereo not given) | 4.425% | 1.761% |
| `[H][C@]12CC[C@]([H])(CN(C(=O)c3ccccc3)C1)N(S(=O)(=O)c1cccnc1)C2` | -0.6698% | 9.401% |
| `CNc1cccc(C2CCCN(C(C)=O)C2)n1` (stereo not given) | 2.793% | -0.7477% |
| `Cc1noc(C)c1CCC(=O)Nc1ccn(C)n1` | 1.507% | 31.63% |
| `CNC(=O)[C@@H]1CN(C(=O)C2CCC2)C[C@H]1c1ccnc(N2CCCC2)n1.Cl` | -8.773% | 34.78% |
| `CC(Cn1cccn1)NC(=O)N1CCCN(Cc2cccs2)CC1` (stereo not given) | 18.49% | 24.31% |
| `CC(=O)N1CCOC(Cc2cccc(C(F)(F)F)c2)C1` (stereo not given) | 1.127% | 7.236% |
| `Cc1noc(C)c1CC(=O)N[C@@H]1CC[C@@H](Oc2ccccc2)[C@@H]1O` | 14.73% | -25.66% |
| `CSc1ccc(CNC(c2ccccc2)c2nccn2C)cc1` (stereo not given) | 0.2154% | 36.78% |
| `Br.COc1ccc(C(=O)CN(C2=NCCCCC2)c2ccccc2)cc1` | 2.737% | 5.258% & -10.11% |
| `Cc1cnc(CNS(=O)(=O)CCC2CCCO2)o1` (stereo not given) | 11.28% | -3.663% |
| `CN(C)C(=O)CC1CC2(CCNCC2)c2cc(F)ccc21` (stereo not given) | -1.345% | -2.397% |
| `CNC(=O)c1cccc(CCNc2ncc(Br)cn2)c1` | 0.885% | -30.4% |
| `O=C(N1CCCC1)N1CCn2c(Cn3cccn3)cnc2C1` | 5.003% | -16.82% |
| `NC(=O)C1CCN(C(=O)CCCc2ccc(Cl)c(Cl)c2)CC1` | 0.9595% | 11.24% |
| `Cc1ccc(CNC(=O)c2cc(C)n(C)n2)o1` | 75.49% | -67.44% |
| `CSc1nccc(N2CCC3(CCCN(CC4CC4)C3)C2)n1` (stereo not given) | -22.12% | 2.451% |
| `Cc1nn(C)c(C)c1-c1ccc(=O)n(C(C)C(=O)NC2CC2)n1` (stereo not given) | -19.48% | -10.88% |

Some entries from above, unchanged:

| compound | Toxoplasma | Leishmania in macrophages |
|---|---|---|
| `O=C(c1csc(-c2ccco2)n1)N1CCN2CCCCC2C1` (stereo not given) | 4.425% | 1.761% |
| `CN(C)C(=O)CC1CC2(CCNCC2)c2cc(F)ccc21` (stereo not given) | -1.345% | -2.397% |
| `CCc1nc(-c2ccc(NC(=O)N3CCCC3)cc2)no1` | -0.4174% | 8.436% |
| `CNC(=O)c1cccc(CCNc2ncc(Br)cn2)c1` | 0.885% | -30.4% |
| `Cc1noc(C)c1CC(=O)N[C@@H]1CC[C@@H](Oc2ccccc2)[C@@H]1O` | 14.73% | -25.66% |
| `Fc1cc(CN2CCOC3(CCOCC3)C2)ccc1OC(F)F` | 12.7% | 22.97% |